This note sets out measurements from article PMC7819943, “Rice protein-binding microarrays: a tool to detect cis-acting elements near promoter regions in rice”.

The chains behind the UniProt entries cited, without tags or fusion partners.
UniProt Q0JBA9, entry or part of it: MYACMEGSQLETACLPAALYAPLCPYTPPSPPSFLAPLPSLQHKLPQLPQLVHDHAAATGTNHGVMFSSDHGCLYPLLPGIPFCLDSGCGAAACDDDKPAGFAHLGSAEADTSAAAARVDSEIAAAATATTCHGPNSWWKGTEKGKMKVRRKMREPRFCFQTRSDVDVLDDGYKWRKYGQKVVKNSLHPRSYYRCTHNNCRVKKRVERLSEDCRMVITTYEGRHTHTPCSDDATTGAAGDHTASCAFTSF

Some of the results follow.

The assay addresses OsWRKY34 (Oryza sativa, UniProt Q0JBA9 1-250). The assay can be described thus: protein-binding microarray (RPBM); PBS, 2% BSA, 51.3 ng/ul salmon testes DNA, 50 uM zinc acetate, 200 nM TF, 25 C, 1 h; high values mean tight binding. The note with it: protein: recombinant; tags: N-terminal polyhistidine and DsRed monomer fusion (pET32a); label: CyDye5-dUTP incorporated in the synthesized complementary strand; 3' TTTTT single-stranded linker to array surface; dsDNA, one strand shown. Summed up:
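Transcription factors were made in E. coli BL21-CodonPlus as N-terminal fusions to a polyhistidine tag and DsRed, then purified on Ni–NTA. After primer extension with Cy5-dUTP and blocking with 2% BSA, a custom Agilent array was exposed for 1 h at 25 °C to 200 nM protein in PBS, 2% BSA, salmon testes DNA and 50 µM zinc acetate. Washed arrays were scanned on an Axon 4000B, and the binding signal is per-feature fluorescence intensity in arbitrary units.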
Take “CCTTCACATTTCCTCCATTCCGAATGAGCCCTTAAAATTTCGGAGTCACCTAGTGCAG”: the binding signal was 8640 fluorescence intensity (a.u.).
Then “GACTAAGTGCCTCTCCTGTAAGTATTTTACGCTTTATTTACGGAGTCACCTAGTGCAG”, with 8700 fluorescence intensity (a.u.); and “GTAAATACACGATCTGCCATCACATTCGTCGCCGTTCCATCGGAGTCACCTAGTGCAG”, with 8300 fluorescence intensity (a.u.); and “TTTTCTGTTTTTTAATTTTTTTCTCTATTTTCATATTATTCGGAGTCACCTAGTGCAG”, with 8340 fluorescence intensity (a.u.).
Next, “CACCTCCCCGCCCACCATTCCCACTTTCGCCCACACACACCGGAGTCACCTAGTGCAG”: 9570 fluorescence intensity (a.u.).
Then “CAGAGCACTAGATAATGACCAGACCCACATTCCATTTCGACGGAGTCACCTAGTGCAG”, with 8090 fluorescence intensity (a.u.); and “GCAATTTGCTGCTGTTGTCGTCAGTCTAAATTTGTACTAGCGGAGTCACCTAGTGCAG”, with 9390 fluorescence intensity (a.u.); and “TTGTGTATTGGTGCTGTCGGTGCATGGGTGGTGGTTTTTTCGGAGTCACCTAGTGCAG”, with 20700 fluorescence intensity (a.u.).
Regarding “TGTCATGGAGGATGAATTCGTTGTGTAATTTCCCTTTCAGCGGAGTCACCTAGTGCAG”, the binding signal is 8080 fluorescence intensity (a.u.).
Next, “CTACTACTGCCACCTTTATAAATAGCCTCCTGACTTTTCTCGGAGTCACCTAGTGCAG”: 8760 fluorescence intensity (a.u.); “TTCCAAGCTTTTTTTTTTTTTGGTTCTGCAGCCATTTACTCGGAGTCACCTAGTGCAG”: 8880 fluorescence intensity (a.u.); “CGCGTGTTGATTACATTTCCAAATCCTTGGTCGACGCTAACGGAGTCACCTAGTGCAG”: 8610 fluorescence intensity (a.u.).
Then “TTTATTATTAGTCTAAGTTTAATACTTCTTATTAGTGTCACGGAGTCACCTAGTGCAG”, with 8180 fluorescence intensity (a.u.); and “TACTACTACCTGTCATCTTCTCCTTCTTAATCCCAACTAACGGAGTCACCTAGTGCAG”, with 10300 fluorescence intensity (a.u.); and “CGGTGCCAAGTTGCCGATCGATCCGGTTTTTTTCGTTTTTCGGAGTCACCTAGTGCAG”, with 8190 fluorescence intensity (a.u.).
Then “TTGGGTTTGGTTGCGTTGCGGCCCATCCATCGCATTCGCGCGGAGTCACCTAGTGCAG”, with 8160 fluorescence intensity (a.u.); and “TGGAGTTTTGTTTCTCTCCCATCCCACCACCTCGGCCTCACGGAGTCACCTAGTGCAG”, with 8910 fluorescence intensity (a.u.).
Take “ACGCCGGAGCTCATCGCCAACAGCCGCATCCTCCACCGTCCGGAGTCACCTAGTGCAG”: the binding signal is 9470 fluorescence intensity (a.u.).
Next, “TGGTAATATGCTTGTCTAAAATATTTGAAAATATTTTTTTCGGAGTCACCTAGTGCAG”: 8850 fluorescence intensity (a.u.); “ATACTTCCATTTGTGCCATACATTTTGTCATTTCGACCTGCGGAGTCACCTAGTGCAG”: 10800 fluorescence intensity (a.u.).
With “CTTCGATCACCAAATCGCCACATCAATTACAACTTATAGTCGGAGTCACCTAGTGCAG”, the binding signal was 9190 fluorescence intensity (a.u.).
With “CGGTTTTCTGGTTGAGGGGTACGAATTAGATTCGGTGTATCGGAGTCACCTAGTGCAG”, the binding signal is 8850 fluorescence intensity (a.u.).
For the sequence “CTCGCCCTCGCGCGCCTCGCTATTAAAGCCGCGGCCTTCTCGGAGTCACCTAGTGCAG”, the binding signal is 8200 fluorescence intensity (a.u.).
Next, “CCTTTCTCCTCCTGTATACGTACGTACGTGCCGCTTTCGCCGGAGTCACCTAGTGCAG”: 8570 fluorescence intensity (a.u.).
As for “TTAGAATCCATCCTCGCCTATATACAGCCTCAGAGTTGACCGGAGTCACCTAGTGCAG”, the binding signal was 9520 fluorescence intensity (a.u.).
Next, “TATACACACAAACTTCCAATTTTTCCGTCACATCGTTCCACGGAGTCACCTAGTGCAG”: 8210 fluorescence intensity (a.u.); “TCTCCCAGTCGTTGCTCCTCTGGCCCTCGTACTCCTCCAACGGAGTCACCTAGTGCAG”: 9360 fluorescence intensity (a.u.).
Then “GTCTATTTGTCCCTGAAGGACAATTCCTTCTGCTGCATGCCGGAGTCACCTAGTGCAG”, with 8880 fluorescence intensity (a.u.); and “ATTTTTGGTCATGCTCACATCTTCACCTAGCAATAAGCCCCGGAGTCACCTAGTGCAG”, with 8100 fluorescence intensity (a.u.); and “CGGTAATTCTGCTAGCTCGGTTGGCATTGCGGTTCAGAAACGGAGTCACCTAGTGCAG”, with 8320 fluorescence intensity (a.u.).
For “TTACACCCTCACACCTCACTCACTCACACACACACACAATCGGAGTCACCTAGTGCAG”, the binding signal is 8070 fluorescence intensity (a.u.).
As to “CTGGCCCCTCTGCAAACTCGTCTCGTACCGTACCCCAAAACGGAGTCACCTAGTGCAG”, the binding signal was 9260 fluorescence intensity (a.u.).
With “CGTCTATATGATATCTTTATATGTATGTCGTTCCACATTCCGGAGTCACCTAGTGCAG”, the binding signal was 8410 fluorescence intensity (a.u.).
Then “ATGCCTCTTTCGTAATCCATGGCCGTTTGATGCAGATCTCCGGAGTCACCTAGTGCAG”, with 9410 fluorescence intensity (a.u.); and “GACCCACTCTATCTTTTAACCTTGTCTCTAGACTGCTTTTCGGAGTCACCTAGTGCAG”, with 10400 fluorescence intensity (a.u.); and “GTGGTGTGAAGGAATAAGTCCATTTTGCCTCCCTCATCTCCGGAGTCACCTAGTGCAG”, with 8880 fluorescence intensity (a.u.).
Next, “ACATTTCTGACTCTATTTCCAGTCTCAAGCAGTGTGACACCGGAGTCACCTAGTGCAG”: 8650 fluorescence intensity (a.u.); “CCGTTTCAAAATATTTGACACCGTTGACTTTTTAGTACGTCGGAGTCACCTAGTGCAG”: 26800 fluorescence intensity (a.u.); “AGCAGGCATCTTTACTCCTAACATACAACTATATTGACAACGGAGTCACCTAGTGCAG”: 8230 fluorescence intensity (a.u.).
Then “CGCCATCAATCACCATCTACACCTCTAGAGAGCTAATTAACGGAGTCACCTAGTGCAG”, with 8260 fluorescence intensity (a.u.).
In the case of “GCATCGTTTCTCCTGGCGTCACTGCACCCATAACTGCCAACGGAGTCACCTAGTGCAG”, the binding signal was 9200 fluorescence intensity (a.u.).
Next, “CACGACCACGACTCCATCAACGCCCAAGCAAAGCCGCCGGCGGAGTCACCTAGTGCAG”: 8480 fluorescence intensity (a.u.).
